From article PMC12463088
No constants are given. Whether binding was seen depends on the method and setting. Sequences can lack the tags named with a protein.

Biological target: T1, GST-IRF4 fusion protein (mouse) (UniProt Q64287)
T1 sequence: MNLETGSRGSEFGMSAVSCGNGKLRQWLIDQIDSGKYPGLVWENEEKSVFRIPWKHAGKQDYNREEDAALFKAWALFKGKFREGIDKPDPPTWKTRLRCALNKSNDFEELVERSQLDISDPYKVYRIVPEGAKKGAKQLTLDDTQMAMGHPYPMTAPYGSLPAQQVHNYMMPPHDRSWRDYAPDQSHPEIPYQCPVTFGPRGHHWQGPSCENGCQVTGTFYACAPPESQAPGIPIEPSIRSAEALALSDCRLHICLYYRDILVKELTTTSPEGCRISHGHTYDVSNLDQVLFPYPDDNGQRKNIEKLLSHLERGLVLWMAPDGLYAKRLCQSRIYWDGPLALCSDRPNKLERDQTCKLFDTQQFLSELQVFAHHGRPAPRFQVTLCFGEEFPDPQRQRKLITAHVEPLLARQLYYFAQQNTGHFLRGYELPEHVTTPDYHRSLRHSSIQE
Test: condition: ≈100 µg His-KPNA6 on ≈100 µg immobilised GST-IRF4; pull-down; GST pulldown without βFaar: ≈100 µg GST or GST-IRF4 immobilised on 50 µL glutathione agarose, ≈100 µg His-KPNA6 added, overnight at 4 °C; eluted with 10 mM glutathione in PBS pH 8.0; immunoblotting; both purified

binding: no binding
Substance: His-KPNA6 fusion protein (from UniProt O35345 1-536)
